Experimental data: patent US20220242906A1
These are yes or no findings as the source states them, for the method shown. Some binding calls cover weakened binding; strength is not graded here.

The chains behind the UniProt entries cited, without tags or fusion partners. Residues count along the entry.
UniProt P06730, residues 2-217: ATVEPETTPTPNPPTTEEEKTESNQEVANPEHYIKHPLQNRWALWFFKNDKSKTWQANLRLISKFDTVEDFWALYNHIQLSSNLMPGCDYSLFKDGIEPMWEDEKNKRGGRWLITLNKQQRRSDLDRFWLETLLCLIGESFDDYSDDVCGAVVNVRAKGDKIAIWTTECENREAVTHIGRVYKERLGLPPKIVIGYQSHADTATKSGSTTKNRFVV

Experiments:
[1] = molecular target: elongation initiation factor 4E (eIF4E) (UniProt P06730); test: NGS-enhanced phage display: C7C peptide on M13 pIII selected on immobilised biotinylated eIF4E, three replicate selections, enrichment against control selections on MDM2 and eIF4A
[2] = molecular target: elongation initiation factor 4E (eIF4E) (UniProt P06730); test: tryptophan quenching of eIF4E (1 µM), excitation 290 nm, emission 355 nm
[3] = molecular target: elongation initiation factor 4E (eIF4E) (UniProt P06730); test: tryptophan quenching of eIF4E (1 uM eIF4E, 0.01-20 uM peptide)
[4] = molecular target: elongation initiation factor 4E (eIF4E) (UniProt P06730); test: competitive fluorescence anisotropy, panel 'Peptide Interaction Site': displacement of the FAM labelled tracer peptide …-(FAM) (50 nM) from eIF4E (200 nM) [cont'd) B]
[5] = molecular target: elongation initiation factor 4E (eIF4E) (UniProt P06730); test: SPR

Binder	binding [1]	binding [5]	other results
ACEMGYFGNCG (C2-C10 disulphide bond (C7C constrained loop)) [EE-9]	binds		
KKRYSRDQLVAL [PHAGESOL (…)]			binding [2]: binds; binding [3]: binds; binding [4]: binds
ACIHSPTSLCG (C2-C10 disulphide bond (C7C constrained loop)) [Peptide 45]	binds		
ACEMGYFQDCG (free N-terminal amine; C-terminal amide; disulphide bond between Cys2 and Cys10) [EE-30 (…)]		binds	
ACEMGFYQDCG (free N-terminal amine; C-terminal amide; disulphide bond between Cys2 and Cys10) [EE-35 (…)]		binds	
